PubChem BioAssay AID1259254 – NCATS, 2017
Purpose: 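Genome-wide screen for genes that prevent DNA re-replication in cancer cells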 (primary screen). Cell system: human HCT116 colorectal cancer cells. Reagents: single siRNA against human genes. Duration: 3 days. Detection: 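Nuclei stained with Hoechst and imaged; cell-cycle phase assigned by DNA content; G2 share scaled per plate, non-targeting siRNA 0%, GMNN siRNA 100%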. Scale: G2 robust z-score and G2 cells, % of GMNN control: higher = more G2 cells, more excess DNA replication; raw share of cells in G2: higher = larger share of cells with G2 DNA content. Rule for the call: 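An siRNA counts as active if its G2 robust z-score lies at least 5 MADs above the screen median; here such calls match roughly 38% of GMNN control or more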.
Shown is an unselected part of about 59,000 reagents tested. Of all reagents, about 1,550 (2.6%) are marked active. 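G2 share is only a proxy for re-replication; each gene was hit by three separate siRNAs, and active genes were retested.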 The raw values are shown without normalisation. A number with no mark means an inactive call. Reagents against one gene are numbered here. No sequences are given here. Not given: the amount of reagent.

| G2 robust z-score | G2 cells, % of GMNN control | raw share of cells in G2 (%) | target gene | reagent |
| --- | --- | --- | --- | --- |
| -0.28 | 0.996 | 4.01 | ETS2 | 1 |
| -0.572 | -1.06 | 4.86 | ETS2 | 2 |
| -0.415 | 0.0488 | 5.25 | ETS2 | 3 |
| 0.312 | 5.16 | 7.69 | CYSLTR1 | 1 |
| 1.12 | 10.9 | 8.31 | CYSLTR1 | 2 |
| 0.132 | 3.9 | 4.46 | CYSLTR1 | 3 |
| 0.443 | 6.09 | 6.53 | NRAD1 | 1 |
| 0.409 | 5.84 | 5.07 | NRAD1 | 2 |
| -0.617 | -1.37 | 1.42 | NRAD1 | 3 |
| -0.885 | -3.26 | 2.44 | ZNF135 | 1 |
| -0.758 | -2.37 | 4.93 | ZNF135 | 2 |
| -0.402 | 0.142 | 3.4 | ZNF135 | 3 |
| 0.12 | 3.81 | 6.02 | BAK1 | 1 |
| 0.451 | 6.14 | 7.26 | BAK1 | 2 |
| -1.03 | -4.29 | 2.39 | BAK1 | 3 |
| -0.669 | -1.74 | 4.36 | SSNA1 | 1 |
| 0.536 | 6.74 | 6.57 | SSNA1 | 2 |
| -1.03 | -4.25 | 1.85 | SSNA1 | 3 |
| 4.29 | 33.2 | 13.5 | CCNB1IP1 | 1 |
| 1.01 | 10.1 | 8.31 | CCNB1IP1 | 2 |
| 0.898 | 9.29 | 8.9 | CCNB1IP1 | 3 |
| -0.37 | 0.363 | 3.37 | DESI1 | 1 |
| -0.498 | -0.534 | 3.65 | DESI1 | 2 |
| 1.49 | 13.5 | 9.64 | DESI1 | 3 |
| -0.567 | -1.02 | 2.81 | WASHC2A | 1 |
| 1.65 | 14.6 | 10.1 | WASHC2A | 2 |
| 1.54 | 13.8 | 9.85 | WASHC2A | 3 |
| 1.35 | 12.5 | 9.09 | MRPL53 | 1 |
| -0.567 | -1.02 | 3.03 | MRPL53 | 2 |
| 0.658 | 7.6 | 4.04 | MRPL53 | 3 |
| 2.06 | 17.5 | 11.8 | GPR179 | 1 |
| 0.352 | 5.44 | 8.26 | GPR179 | 2 |
| -1.06 | -4.47 | 2.65 | GPR179 | 3 |
| 1.86 | 16 | 11.3 | DDN | 1 |
| 0.197 | 4.35 | 5.93 | DDN | 2 |
| -0.679 | -1.81 | 2.5 | DDN | 3 |
| 0.0797 | 3.53 | 7.11 | SPTBN4 | 1 |
| -0.123 | 2.1 | 5.09 | SPTBN4 | 2 |
| -0.396 | 0.178 | 4.29 | SPTBN4 | 3 |
| 0.301 | 5.09 | 4.54 | KRTAP9-4 | 1 |
| -0.924 | -3.53 | 2.58 | KRTAP9-4 | 2 |
| 1.75 | 15.3 | 7.79 | KRTAP9-4 | 3 |
| 0.189 | 4.3 | 7.03 | BUB1 | 1 |
| 0.0951 | 3.64 | 6.64 | BUB1 | 2 |
| -0.658 | -1.66 | 3.44 | BUB1 | 3 |
| -0.439 | -0.123 | 6.38 | ASCL3 | 1 |
| -0.212 | 1.47 | 4.97 | ASCL3 | 2 |
| 7.3 (active) | 54.3 | 27 | ASCL3 | 3 |
| -0.832 | -2.88 | 4.19 | GGCX | 1 |
| -0.297 | 0.875 | 5.6 | GGCX | 2 |
| -0.233 | 1.33 | 4.13 | GGCX | 3 |
| 1.06 | 10.4 | 7.66 | MAP1LC3C | 1 |
| 1.46 | 13.2 | 8.44 | MAP1LC3C | 2 |
| -0.201 | 1.56 | 3.65 | MAP1LC3C | 3 |
| -1.38 | -6.74 | 1.99 | C8orf82 | 1 |
| -0.801 | -2.67 | 2.84 | C8orf82 | 2 |
| 0.104 | 3.7 | 4.98 | C8orf82 | 3 |
| 0.75 | 8.24 | 7.87 | DENND1C | 1 |
| -0.671 | -1.75 | 3.54 | DENND1C | 2 |
| 0.764 | 8.34 | 4.66 | DENND1C | 3 |
| -0.91 | -3.44 | 2.48 | TREM2 | 1 |
| -0.681 | -1.82 | 5.13 | TREM2 | 2 |
| -1.06 | -4.51 | 2.58 | TREM2 | 3 |
| 1.93 | 16.6 | 9.68 | HAVCR1 | 1 |
| 0.559 | 6.9 | 6.25 | HAVCR1 | 2 |
| -0.992 | -4.01 | 4.34 | HAVCR1 | 3 |
| -0.405 | 0.116 | 4.51 | DPF1 | 1 |
| -0.0466 | 2.64 | 5.24 | DPF1 | 2 |
| -0.885 | -3.26 | 4.22 | DPF1 | 3 |
| -0.309 | 0.796 | 4.16 | BHLHE22 | 1 |
| -0.196 | 1.59 | 5.15 | BHLHE22 | 2 |
| -0.631 | -1.47 | 2.79 | BHLHE22 | 3 |
| 0.301 | 5.08 | 6.48 | SMPD4 | 1 |
| 1.22 | 11.6 | 8.93 | SMPD4 | 2 |
| 0.578 | 7.04 | 5.38 | SMPD4 | 3 |
| -0.644 | -1.56 | 2.76 | ZC2HC1A | 1 |
| -1.03 | -4.25 | 2.23 | ZC2HC1A | 2 |
| -0.554 | -0.929 | 4.2 | ZC2HC1A | 3 |
| 2.89 | 23.3 | 12 | NSG2 | 1 |
| 5.91 (active) | 44.5 | 23 | NSG2 | 2 |
| -0.231 | 1.34 | 3.63 | NSG2 | 3 |
| 6.64 (active) | 49.7 | 26.3 | DIS3L2 | 1 |
| -0.402 | 0.136 | 4.53 | DIS3L2 | 2 |
| -0.252 | 1.19 | 6.23 | DIS3L2 | 3 |
| -0.809 | -2.73 | 2.93 | RRP36 | 1 |
| 2.01 | 17.1 | 8.36 | RRP36 | 2 |
| -0.674 | -1.77 | 2.36 | RRP36 | 3 |

Reprinted from above (9 entries):
| G2 robust z-score | G2 cells, % of GMNN control | raw share of cells in G2 (%) | target gene | reagent |
| --- | --- | --- | --- | --- |
| -0.402 | 0.142 | 3.4 | ZNF135 | 3 |
| 0.12 | 3.81 | 6.02 | BAK1 | 1 |
| 0.451 | 6.14 | 7.26 | BAK1 | 2 |
| -1.03 | -4.29 | 2.39 | BAK1 | 3 |
| -0.669 | -1.74 | 4.36 | SSNA1 | 1 |
| 0.536 | 6.74 | 6.57 | SSNA1 | 2 |
| -1.03 | -4.25 | 1.85 | SSNA1 | 3 |
| 4.29 | 33.2 | 13.5 | CCNB1IP1 | 1 |
| 1.01 | 10.1 | 8.31 | CCNB1IP1 | 2 |
